# This is one part of the list.
# Chains of the proteins cited; added tags and fusions are not shown. Lines headed by an entry give the natural chain unless they say otherwise; changes in a name come on top.
# UniProt P19174: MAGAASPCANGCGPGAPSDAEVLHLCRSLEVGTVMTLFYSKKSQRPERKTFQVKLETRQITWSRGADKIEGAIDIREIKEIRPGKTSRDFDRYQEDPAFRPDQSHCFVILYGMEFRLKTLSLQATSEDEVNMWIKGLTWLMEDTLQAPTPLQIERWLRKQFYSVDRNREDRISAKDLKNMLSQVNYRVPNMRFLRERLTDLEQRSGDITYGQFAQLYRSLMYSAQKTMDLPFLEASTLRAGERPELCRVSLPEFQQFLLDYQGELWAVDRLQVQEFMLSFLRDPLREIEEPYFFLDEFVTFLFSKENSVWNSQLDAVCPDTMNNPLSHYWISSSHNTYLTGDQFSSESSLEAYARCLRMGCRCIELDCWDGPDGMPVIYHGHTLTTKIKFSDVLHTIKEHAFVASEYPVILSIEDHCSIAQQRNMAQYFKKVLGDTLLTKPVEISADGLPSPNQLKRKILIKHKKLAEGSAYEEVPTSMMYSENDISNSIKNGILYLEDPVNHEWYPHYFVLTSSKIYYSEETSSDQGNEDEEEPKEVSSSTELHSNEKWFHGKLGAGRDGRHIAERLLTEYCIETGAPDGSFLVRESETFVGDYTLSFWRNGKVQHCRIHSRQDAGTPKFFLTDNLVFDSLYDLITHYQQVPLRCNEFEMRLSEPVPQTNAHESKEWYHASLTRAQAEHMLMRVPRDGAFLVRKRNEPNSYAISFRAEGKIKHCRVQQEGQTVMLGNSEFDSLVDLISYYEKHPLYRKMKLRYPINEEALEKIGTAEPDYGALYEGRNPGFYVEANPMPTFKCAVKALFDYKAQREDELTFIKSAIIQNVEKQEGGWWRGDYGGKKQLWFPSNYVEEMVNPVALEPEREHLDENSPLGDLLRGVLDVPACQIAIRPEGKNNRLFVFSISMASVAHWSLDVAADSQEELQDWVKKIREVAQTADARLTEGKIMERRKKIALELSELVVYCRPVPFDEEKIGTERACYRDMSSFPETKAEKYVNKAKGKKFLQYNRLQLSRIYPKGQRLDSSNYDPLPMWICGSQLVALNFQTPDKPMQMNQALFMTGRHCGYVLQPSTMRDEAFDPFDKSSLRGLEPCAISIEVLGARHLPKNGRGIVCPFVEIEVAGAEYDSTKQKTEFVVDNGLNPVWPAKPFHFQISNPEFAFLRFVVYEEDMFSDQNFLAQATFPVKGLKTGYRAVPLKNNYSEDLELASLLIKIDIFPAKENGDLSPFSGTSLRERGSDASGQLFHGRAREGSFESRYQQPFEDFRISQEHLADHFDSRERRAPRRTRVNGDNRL
# UniProt Q9NRX1: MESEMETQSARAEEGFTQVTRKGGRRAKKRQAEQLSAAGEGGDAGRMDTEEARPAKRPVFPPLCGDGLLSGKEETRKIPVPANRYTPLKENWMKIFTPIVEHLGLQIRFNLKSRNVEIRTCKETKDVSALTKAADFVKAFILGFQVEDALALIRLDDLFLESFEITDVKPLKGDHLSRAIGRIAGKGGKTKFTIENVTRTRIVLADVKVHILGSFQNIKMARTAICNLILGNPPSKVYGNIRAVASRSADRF
# UniProt Q99541: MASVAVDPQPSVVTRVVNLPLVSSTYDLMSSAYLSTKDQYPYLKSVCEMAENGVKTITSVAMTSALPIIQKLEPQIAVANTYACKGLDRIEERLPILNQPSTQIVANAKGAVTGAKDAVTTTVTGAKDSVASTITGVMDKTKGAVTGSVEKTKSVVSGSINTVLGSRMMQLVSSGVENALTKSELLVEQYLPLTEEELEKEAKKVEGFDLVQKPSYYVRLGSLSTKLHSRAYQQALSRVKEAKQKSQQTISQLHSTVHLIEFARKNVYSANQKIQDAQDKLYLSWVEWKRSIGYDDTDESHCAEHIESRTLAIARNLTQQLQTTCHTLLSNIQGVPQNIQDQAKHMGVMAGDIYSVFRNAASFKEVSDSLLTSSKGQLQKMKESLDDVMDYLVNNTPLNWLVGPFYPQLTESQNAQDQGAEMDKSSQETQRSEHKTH
# UniProt Q96BZ4: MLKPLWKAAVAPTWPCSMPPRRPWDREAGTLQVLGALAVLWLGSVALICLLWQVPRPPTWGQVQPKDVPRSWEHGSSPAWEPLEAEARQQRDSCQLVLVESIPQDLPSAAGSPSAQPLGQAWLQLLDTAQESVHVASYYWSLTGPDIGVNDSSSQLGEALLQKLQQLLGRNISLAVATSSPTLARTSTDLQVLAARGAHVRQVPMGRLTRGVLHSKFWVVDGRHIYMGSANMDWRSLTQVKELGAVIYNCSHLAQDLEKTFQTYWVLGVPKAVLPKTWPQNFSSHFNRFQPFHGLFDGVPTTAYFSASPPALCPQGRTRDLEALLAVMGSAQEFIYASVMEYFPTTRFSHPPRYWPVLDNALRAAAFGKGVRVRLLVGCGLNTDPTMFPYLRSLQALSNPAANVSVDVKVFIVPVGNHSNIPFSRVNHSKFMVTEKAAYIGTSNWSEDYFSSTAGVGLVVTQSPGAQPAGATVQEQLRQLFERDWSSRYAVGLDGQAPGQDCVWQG
# UniProt P27986, whole entry, looked up: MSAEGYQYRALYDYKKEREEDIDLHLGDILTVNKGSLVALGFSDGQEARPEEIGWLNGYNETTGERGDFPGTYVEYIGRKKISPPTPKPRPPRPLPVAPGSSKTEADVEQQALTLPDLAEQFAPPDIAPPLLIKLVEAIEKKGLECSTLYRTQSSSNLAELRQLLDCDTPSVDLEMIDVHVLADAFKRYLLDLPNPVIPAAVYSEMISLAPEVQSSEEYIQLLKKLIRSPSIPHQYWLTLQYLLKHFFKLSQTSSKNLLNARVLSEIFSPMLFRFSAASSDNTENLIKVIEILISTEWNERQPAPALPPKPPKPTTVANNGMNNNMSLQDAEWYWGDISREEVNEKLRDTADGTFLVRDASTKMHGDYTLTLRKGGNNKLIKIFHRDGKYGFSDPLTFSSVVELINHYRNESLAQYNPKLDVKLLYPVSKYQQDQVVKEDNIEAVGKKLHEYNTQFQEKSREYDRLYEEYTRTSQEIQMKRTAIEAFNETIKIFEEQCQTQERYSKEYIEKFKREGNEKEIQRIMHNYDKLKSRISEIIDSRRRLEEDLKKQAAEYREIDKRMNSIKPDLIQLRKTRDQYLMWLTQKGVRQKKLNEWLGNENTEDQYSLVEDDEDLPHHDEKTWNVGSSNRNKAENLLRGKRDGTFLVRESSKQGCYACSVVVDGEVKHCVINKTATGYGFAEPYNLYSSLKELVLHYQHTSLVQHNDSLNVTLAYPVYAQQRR
# UniProt P16885: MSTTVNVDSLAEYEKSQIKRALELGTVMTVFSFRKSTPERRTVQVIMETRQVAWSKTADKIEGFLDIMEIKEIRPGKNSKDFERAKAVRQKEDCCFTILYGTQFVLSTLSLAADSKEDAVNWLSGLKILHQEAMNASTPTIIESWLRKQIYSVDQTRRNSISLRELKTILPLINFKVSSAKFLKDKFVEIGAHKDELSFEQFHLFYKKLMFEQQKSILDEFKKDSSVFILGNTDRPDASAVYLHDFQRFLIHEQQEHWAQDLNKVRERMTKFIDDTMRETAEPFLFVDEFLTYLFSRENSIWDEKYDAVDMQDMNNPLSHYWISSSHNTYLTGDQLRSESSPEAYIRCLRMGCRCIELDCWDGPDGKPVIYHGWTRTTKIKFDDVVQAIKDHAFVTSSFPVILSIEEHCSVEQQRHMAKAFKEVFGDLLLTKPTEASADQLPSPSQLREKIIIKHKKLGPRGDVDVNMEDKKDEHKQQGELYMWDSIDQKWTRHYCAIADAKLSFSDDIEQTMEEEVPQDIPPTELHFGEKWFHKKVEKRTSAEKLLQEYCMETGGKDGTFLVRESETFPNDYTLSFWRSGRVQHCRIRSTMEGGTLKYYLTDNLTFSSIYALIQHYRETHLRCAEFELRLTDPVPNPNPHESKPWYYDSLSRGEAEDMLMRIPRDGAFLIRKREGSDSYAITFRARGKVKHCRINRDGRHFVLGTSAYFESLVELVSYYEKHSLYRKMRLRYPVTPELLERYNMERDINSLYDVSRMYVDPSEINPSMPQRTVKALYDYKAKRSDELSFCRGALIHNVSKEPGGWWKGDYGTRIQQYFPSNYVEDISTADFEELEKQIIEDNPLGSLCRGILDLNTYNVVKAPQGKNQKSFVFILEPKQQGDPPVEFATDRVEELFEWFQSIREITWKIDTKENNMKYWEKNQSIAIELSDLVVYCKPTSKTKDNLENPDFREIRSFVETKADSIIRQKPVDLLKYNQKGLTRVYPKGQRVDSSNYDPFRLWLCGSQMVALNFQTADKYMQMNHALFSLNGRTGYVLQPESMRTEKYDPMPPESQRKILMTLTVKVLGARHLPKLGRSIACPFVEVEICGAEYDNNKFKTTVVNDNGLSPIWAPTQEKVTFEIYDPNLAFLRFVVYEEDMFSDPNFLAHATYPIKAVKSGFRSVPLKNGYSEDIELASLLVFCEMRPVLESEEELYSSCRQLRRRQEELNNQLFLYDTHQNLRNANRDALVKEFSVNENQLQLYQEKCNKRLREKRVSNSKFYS
# UniProt Q8IWE5: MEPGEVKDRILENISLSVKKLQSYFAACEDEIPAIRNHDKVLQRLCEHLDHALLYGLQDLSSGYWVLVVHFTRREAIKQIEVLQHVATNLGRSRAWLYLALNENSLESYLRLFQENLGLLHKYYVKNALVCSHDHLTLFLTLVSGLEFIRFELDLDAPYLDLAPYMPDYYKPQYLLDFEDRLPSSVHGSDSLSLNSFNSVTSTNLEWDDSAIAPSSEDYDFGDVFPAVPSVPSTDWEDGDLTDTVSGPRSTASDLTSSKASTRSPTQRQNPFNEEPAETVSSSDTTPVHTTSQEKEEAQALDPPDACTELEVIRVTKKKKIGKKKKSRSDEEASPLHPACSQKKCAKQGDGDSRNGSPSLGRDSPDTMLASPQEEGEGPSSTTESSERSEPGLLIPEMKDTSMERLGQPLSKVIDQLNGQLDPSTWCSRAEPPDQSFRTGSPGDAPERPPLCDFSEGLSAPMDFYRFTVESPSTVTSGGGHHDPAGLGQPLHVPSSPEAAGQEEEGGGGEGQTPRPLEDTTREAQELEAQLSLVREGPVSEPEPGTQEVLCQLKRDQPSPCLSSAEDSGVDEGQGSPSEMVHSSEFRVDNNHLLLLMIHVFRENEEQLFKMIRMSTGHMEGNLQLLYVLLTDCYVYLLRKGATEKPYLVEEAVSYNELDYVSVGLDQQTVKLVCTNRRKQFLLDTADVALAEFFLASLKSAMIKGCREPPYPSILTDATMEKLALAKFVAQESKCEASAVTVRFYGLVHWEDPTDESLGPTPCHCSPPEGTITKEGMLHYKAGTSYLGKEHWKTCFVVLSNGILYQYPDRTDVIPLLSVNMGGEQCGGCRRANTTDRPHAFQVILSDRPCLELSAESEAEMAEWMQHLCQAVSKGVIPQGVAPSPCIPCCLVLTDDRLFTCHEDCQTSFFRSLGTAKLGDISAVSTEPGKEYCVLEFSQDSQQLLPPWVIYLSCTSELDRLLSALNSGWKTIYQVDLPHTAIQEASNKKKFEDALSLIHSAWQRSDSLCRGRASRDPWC
# UniProt Q9HB19: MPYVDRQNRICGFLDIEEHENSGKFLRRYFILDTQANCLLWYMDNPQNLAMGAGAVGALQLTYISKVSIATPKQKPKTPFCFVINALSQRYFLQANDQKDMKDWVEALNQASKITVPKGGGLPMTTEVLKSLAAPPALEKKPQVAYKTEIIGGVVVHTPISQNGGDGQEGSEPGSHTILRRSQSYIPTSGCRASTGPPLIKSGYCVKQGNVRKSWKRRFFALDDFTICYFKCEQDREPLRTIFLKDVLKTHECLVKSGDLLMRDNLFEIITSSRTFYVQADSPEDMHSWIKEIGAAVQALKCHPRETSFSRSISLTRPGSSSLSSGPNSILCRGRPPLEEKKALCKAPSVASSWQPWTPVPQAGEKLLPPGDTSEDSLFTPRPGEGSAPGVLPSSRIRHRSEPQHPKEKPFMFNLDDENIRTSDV
# UniProt Q8NHP8: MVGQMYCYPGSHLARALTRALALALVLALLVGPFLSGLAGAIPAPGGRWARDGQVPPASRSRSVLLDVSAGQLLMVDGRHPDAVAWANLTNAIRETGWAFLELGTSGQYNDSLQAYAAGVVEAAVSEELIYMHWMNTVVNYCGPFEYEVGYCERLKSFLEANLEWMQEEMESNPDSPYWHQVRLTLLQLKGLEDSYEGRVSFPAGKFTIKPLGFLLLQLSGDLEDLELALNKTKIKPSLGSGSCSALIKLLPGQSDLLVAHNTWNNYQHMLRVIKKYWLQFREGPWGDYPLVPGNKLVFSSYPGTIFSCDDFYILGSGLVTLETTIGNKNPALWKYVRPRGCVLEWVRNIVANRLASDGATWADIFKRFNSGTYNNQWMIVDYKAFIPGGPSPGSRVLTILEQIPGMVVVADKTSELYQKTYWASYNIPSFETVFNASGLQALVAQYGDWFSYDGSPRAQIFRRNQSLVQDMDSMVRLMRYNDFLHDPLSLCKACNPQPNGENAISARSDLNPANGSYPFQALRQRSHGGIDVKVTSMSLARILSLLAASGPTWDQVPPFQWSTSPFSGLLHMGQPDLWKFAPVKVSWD
# Compound: CC1Cc2ccccc2N1C(=O)C1CCCN(C1)C(=O)CCl (mixture of isomers) [TRIM25 ligand 11 (diastereomer mixture)]
# Experiment: probe-labelled cysteine peptide fold change vs DMSO (competition) (log2 fold change); higher = less target engagement (more negative = stronger competition)
# Conditions: THP-1, incubation time: 4 h
# 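Note: competitive chemoproteomic profiling in live THP-1 cells with an iodoacetamide desthiobiotin (IA-DTB) probe, comparing probe-labelled peptide intensities in compound-treated cells against DMSO-treated controls.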
target,measurement,setting,value
PLCG1_P19174_247_AGERPELCR (UniProt P19174),probe-labelled cysteine peptide fold change,10 µM,-0.192
same,probe-labelled cysteine peptide fold change,50 µM,-0.254
PLCG1_P19174_960_IALELSELVVYCR (UniProt P19174),probe-labelled cysteine peptide fold change,10 µM,0.103
same,probe-labelled cysteine peptide fold change,50 µM,0.1
PNO1_Q9NRX1_64_RPVFPPLCGDGLLSGKEETR (UniProt Q9NRX1),probe-labelled cysteine peptide fold change,10 µM,-0.221
same,probe-labelled cysteine peptide fold change,50 µM,-0.419
PLIN2_Q99541_302_SIGYDDTDESHCAEHIESR (UniProt Q99541),probe-labelled cysteine peptide fold change,10 µM,0.0383
same,probe-labelled cysteine peptide fold change,50 µM,0.147
PLD4_Q96BZ4_502_YAVGLDGQAPGQDCVWQG (UniProt Q96BZ4),probe-labelled cysteine peptide fold change,10 µM,-0.0872
same,probe-labelled cysteine peptide fold change,50 µM,0.27
PLEKHO2_Q8TD55_59_CVETVELGSYEK (UniProt Q8TD55),probe-labelled cysteine peptide fold change,10 µM,0.0583
same,probe-labelled cysteine peptide fold change,50 µM,-0.159
PIK3R1_P27986_498_IFEEQCQTQER (UniProt P27986),probe-labelled cysteine peptide fold change,10 µM,-0.0877
same,probe-labelled cysteine peptide fold change,50 µM,-0.0568
PLCG2_P16885_355_CIELDCWDGPDGKPVIYHGWTR (UniProt P16885),probe-labelled cysteine peptide fold change,10 µM,0.0645
same,probe-labelled cysteine peptide fold change,50 µM,0.167
PLK1_P53350_405_QEEAEDPACIPIFWVSK (UniProt P53350),probe-labelled cysteine peptide fold change,10 µM,-0.108
same,probe-labelled cysteine peptide fold change,50 µM,-0.251
PLEKHM2_Q8IWE5_28_KLQSYFAACEDEIPAIR (UniProt Q8IWE5),probe-labelled cysteine peptide fold change,10 µM,-0.0431
same,probe-labelled cysteine peptide fold change,50 µM,-0.0917
PLEKHA2_Q9HB19_11_ICGFLDIEEHENSGK (UniProt Q9HB19),probe-labelled cysteine peptide fold change,10 µM,0.099
same,probe-labelled cysteine peptide fold change,50 µM,0.144
PLBD2_Q8NHP8_342_GCVLEWVR (UniProt Q8NHP8),probe-labelled cysteine peptide fold change,10 µM,-0.312
same,probe-labelled cysteine peptide fold change,50 µM,-0.00984
PIK3R4_Q99570_1097_ILDQKEDGCVVDMHHFNSGAQSVLAYATVNGSLVGWDLR (UniProt Q99570),probe-labelled cysteine peptide fold change,10 µM,0.0468
same,probe-labelled cysteine peptide fold change,50 µM,-0.0347
PLCG2_P16885_849_QIIEDNPLGSLCR (UniProt P16885),probe-labelled cysteine peptide fold change,10 µM,-0.0232
same,probe-labelled cysteine peptide fold change,50 µM,0.105

# A section taken from the entries so far, for reference:
target,measurement,setting,value
PLCG1_P19174_247_AGERPELCR (UniProt P19174),probe-labelled cysteine peptide fold change,10 µM,-0.192
same,probe-labelled cysteine peptide fold change,50 µM,-0.254
